Molecules are shown by their SMILES.

In the test the test system is Du145 (AR-negative prostate cancer). As to the kind of experiment: Cell-Titer GLO cell inhibition. It is filed as cell-based. The following applies: Homo sapiens, DU-145, 72 to 144 hours, ~ = estimate. The source says: The inhibition curve was fitted by GraphPad Prism software to obtain IC50.

`CNC(=O)c1ccc(N2C(=S)N(c3ccc(C#N)c(C(F)(F)F)c3)C(=O)C2(C)C)cc1F` [Enzalutamide]: the IC50 was 44.7 ± 0.93 µM.

Values taken from patent publication US12297164B2, “Benzidine compound and application thereof” (Guangzhou IMD therapeutics Co., Ltd., priority 2019, dated 2025).
